Test results as given in PubChem BioAssay AID1671190 (National Center for Advancing Translational Sciences (NCATS), 2021).
Hit rate of the full screen: of about 580,000 compounds, about 6,100 (1.1%) were called active. The shares of active, inactive and inconclusive entries below differ from those in the screen. Calls follow the shape of the dose curve; as a rule, active = well fitted inhibition curve with a large enough effect; inconclusive = small, poorly fitted or top-dose-only effect, or another doubt; inactive = no such curve, though single readings can be large or run the other way. Where the call is inconclusive, the potency comes from a doubtful curve fit.
% is scaled to controls: 0 for no effect and ±100 for the full control effect; potency is read from the fitted curve at half-maximal effect.

The chains behind the UniProt entries cited, without tags or fusion partners. Where a name states a change or a piece, a line headed by the entry shows the natural chain unless it says otherwise.
UniProt P18054: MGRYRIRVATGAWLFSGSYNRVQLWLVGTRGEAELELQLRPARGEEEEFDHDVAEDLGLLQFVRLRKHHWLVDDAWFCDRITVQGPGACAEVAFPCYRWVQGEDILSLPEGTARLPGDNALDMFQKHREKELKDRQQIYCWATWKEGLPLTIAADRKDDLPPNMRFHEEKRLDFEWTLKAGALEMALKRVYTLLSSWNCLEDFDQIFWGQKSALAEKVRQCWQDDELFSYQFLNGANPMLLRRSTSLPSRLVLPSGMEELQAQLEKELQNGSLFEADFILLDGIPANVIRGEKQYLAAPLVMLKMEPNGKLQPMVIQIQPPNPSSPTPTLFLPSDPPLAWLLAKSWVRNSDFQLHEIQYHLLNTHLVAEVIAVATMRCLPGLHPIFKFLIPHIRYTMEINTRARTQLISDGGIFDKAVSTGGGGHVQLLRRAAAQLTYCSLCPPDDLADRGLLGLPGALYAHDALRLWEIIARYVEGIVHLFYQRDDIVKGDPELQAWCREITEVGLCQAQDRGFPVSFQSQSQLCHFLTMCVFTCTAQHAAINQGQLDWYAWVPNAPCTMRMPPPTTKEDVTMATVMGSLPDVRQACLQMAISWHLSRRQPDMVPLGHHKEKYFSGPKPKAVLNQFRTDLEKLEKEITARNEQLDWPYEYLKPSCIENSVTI

These compounds were tested against Polyunsaturated fatty acid lipoxygenase ALOX12 (Homo sapiens) (UniProt P18054) (assay: Primary qHTS assay for inhibitors of human arachidonate 12S-lipoxygenase (ALOX12): Round 2). Conditions: purified 12hLO, xylenol orange hydroperoxide absorbance; activity change, negative = inhibition: at 108 µM (top of the series) unless noted.
Outline: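 Hydroperoxide product was detected by ferrous iron/xylenol orange as the 573 to 405 nm absorbance ratio. Arachidonic acid at 40 uM (final) was turned over for 30 min at room temperature by 150 nM human 12hLO, pH 7.0 Hepes buffer, after 15 min compound preincubation.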
With `COc1cccc(CNC(=O)CCC2CCCN(C(=O)CCn3cncn3)C2)c1` (stereo unspecified) the “activity change, negative = inhibition” value was inactive: 29.5%.
`COC(=O)N/N=C/c1cn(CCOc2cccc(OC)c2)c2ccccc12` was tested, and the “activity change, negative = inhibition” value was inactive: 0%.
With `C=CCNc1nc(NCc2ccc(NC(C)=O)cc2)c2sc(-c3ccccc3)cc2n1` the Potency was inconclusive: 44.7 µM [inhibitor, partial curve, poor fit].
In the case of `O=c1[nH]c(Nc2ccc(F)cc2)cc2ccccc12`, the Potency is reported as inconclusive: 7.94 µM [inhibitor, full curve, poor fit].
For `CCN1CCCCC12Cc1ccccc1CN(C(=O)C1CCN(C)CC1)C2` (stereo unspecified), the Potency was inconclusive: 4.47 µM [inhibitor, full curve].
With `COc1ccc2c(c1)-c1c(ssc1=S)C(C)(C)N2S(=O)(=O)c1ccc(C)cc1` the Potency was inconclusive: 35.5 µM [inhibitor, partial curve].
In the case of `CCOc1cc(/C=C2/C(=O)ON=C2C)ccc1OCc1ccccc1F`, the Potency is reported as inconclusive: 1.26 µM [inhibitor, full curve, poor fit].
For `CCOC(=O)/C=C/c1cccc(C(C)=O)c1`, the Potency was inconclusive: 17.8 µM [inhibitor, partial curve, poor fit].
`COc1ccc(C(=O)N/N=C/c2cc3ccccc3[nH]c2=S)cc1` was tested, and the Potency was inconclusive: 2 µM [inhibitor, full curve, poor fit].
For `CCOC(=O)CNS(=O)(=O)c1ccc(S(=O)(=O)NC2CC2)cc1`, the “activity change, negative = inhibition” value was inactive: 2.63%.
`FC(F)(F)c1ccccc1NC(=S)N/N=C1\CC2CC=CC12` (stereo unspecified) was tested, and the Potency was inconclusive: 6.31 µM [inhibitor, full curve, poor fit].
With `CC(=O)Nc1cccc(-c2ccnc3c2CC(C(=O)Nc2ccc(F)c(Cl)c2)O3)c1` (stereo unspecified) the Potency was inconclusive: 44.7 µM [inhibitor, single point].
`CCOc1ccc(NC(=O)CSC2=NC3(CCCCC3)Nc3ccccc32)cc1` was tested, and the Potency was inconclusive: 44.7 µM [inhibitor, partial curve].
For `Clc1ccc(CN2CCN(c3ncccn3)CC2)cc1`, the Potency was inconclusive: 0.355 µM [inhibitor, full curve, poor fit].
`COc1ccc(-c2cc(NC=O)c3ncc(-c4cccc(OC)c4)n3c2)cc1` was tested, and the Potency was inconclusive: 22.4 µM [inhibitor, partial curve, poor fit].
With `CCC1S/C(=N/N=C/c2ccco2)N(Cc2ccccc2C)C1=O` (stereo unspecified) the Potency was inconclusive: 39.8 µM [inhibitor, partial curve, poor fit].
With `CC[C@H](C)[C@H](N)C(=O)O` the Potency was inconclusive: 89.1 µM [inhibitor, partial curve, poor fit].
`O=C(Cn1cnc2ccccc2c1=O)Nc1ccc(Cl)c(S(=O)(=O)N2CCOCC2)c1` was tested, and the Potency was inconclusive: 70.8 µM [inhibitor, partial curve, poor fit].
In the case of `O=[N+]([O-])c1ccc(N2CCCC2)c([N+](=O)[O-])c1`, the Potency is reported as inconclusive: 44.7 µM [inhibitor, partial curve, poor fit].
`O=C(Nc1nccs1)c1nc(-c2ccccc2)n(-c2ccccc2)n1` was tested, and the “activity change, negative = inhibition” value was inactive: -4.36%.
With `COC(=O)[C@]12CCCCC=C1N(CCC1=CCCCC1)C(=O)[C@H](CC(=O)N1CCC(c3ccccc3)CC1)C2` the Potency was inconclusive: 35.5 µM [inhibitor, single point].
With `COCC(=O)N(c1ccc(C(C)C)cc1)C1C=CS(=O)(=O)C1` (stereo unspecified) the “activity change, negative = inhibition” value was inactive: 19.4%.
In the case of `O=[N+]([O-])/C(C(Cl)=C(Cl)Cl)=C(/NC1CC1)Sc1ccccc1`, the Potency is reported as inconclusive: 39.8 µM [inhibitor, partial curve, poor fit].
`CCS(=O)(=O)c1ncc(Cl)c(C(=O)N(Cc2ccccc2)C2CCS(=O)(=O)C2)n1` (stereo unspecified) was tested, and the “activity change, negative = inhibition” value was inactive: -5.15%.
`CN1CC2(CCN(C(=O)NCCc3ccccc3)CC2)CC1C(=O)N1CCOCC1` (stereo unspecified) was tested, and the “activity change, negative = inhibition” value was inactive: -17.7%.
With `N#Cc1cc(-c2ccccc2)sc1N` the Potency was inconclusive: 89.1 µM [inhibitor, single point].
With `Cc1ccc(NC(=O)Cn2nc(-c3ccco3)ccc2=O)cc1C` the Potency was inconclusive: 39.8 µM [inhibitor, partial curve, poor fit].
With `COc1ccc2c3n([n+]([O-])c2c1)C(C)CN=C3c1cc(Cl)c(N)c(Cl)c1` (stereo unspecified) the Potency was inconclusive: 31.6 µM [inhibitor, partial curve, poor fit].
For `C(=C\c1ccccn1)/c1ccncc1`, the Potency was inconclusive: 35.5 µM [inhibitor, single point].
`CC(=O)NCC(=O)NNC1CC(=O)N(c2cccc(Cl)c2)C1=O` (stereo unspecified) was tested, and the Potency was inconclusive: 44.7 µM [inhibitor, partial curve, poor fit].
For `CC1Cc2ccccc2N1S(=O)(=O)c1cccc(C(=O)NCc2ccncc2)c1` (stereo unspecified), the Potency was inconclusive: 112 µM [inhibitor, single point].
`O=C(NCc1csc2c1CCCC2)C(c1cccnc1)N1CCOCC1` (stereo unspecified) was tested, and the “activity change, negative = inhibition” value was inactive: 21.1%.
In the case of `Cc1ccc(C)c(NS(=O)(=O)c2ccc3c4c(cccc24)C(=O)N3)c1`, the Potency is reported as inconclusive: 63.1 µM [inhibitor, partial curve, poor fit].
With `Cc1ccc(-n2c(SC(C)C(=O)c3ccc(F)c(F)c3)nnc2N2CCOCC2)cc1` (stereo unspecified) the Potency was inconclusive: 50.1 µM [inhibitor, partial curve, poor fit].
`CCCc1nc2cc(C)c(Br)c(C)n2c1Cc1ccsc1` was tested, and the Potency was inconclusive: 35.5 µM [inhibitor, partial curve, poor fit].
For `O=S(=O)(c1cccc2nsnc12)n1cccn1`, the Potency was inconclusive: 50.1 µM [inhibitor, partial curve, poor fit].
In the case of `COc1cccc(Cn2nnc3c(=O)[nH]c(C4CCCN(C(=O)c5ccc(C)cc5)C4)nc32)c1` (stereo unspecified), the Potency is reported as inconclusive: 112 µM [inhibitor, single point].
In the case of `Cc1ccccc1NC(=S)NNC(=O)c1csc2c1CCC(C)C2` (stereo unspecified), the Potency is reported as inconclusive: 44.7 µM [inhibitor, partial curve, poor fit].
With `Cc1ccc(SCC(=O)c2ccc(CC(=O)O)s2)cc1` the “activity change, negative = inhibition” value was inactive: -17.7%.
For `COc1cc(-c2ccccc2)sc1C(=O)N1CCS(=O)CC1`, the Potency was inconclusive: 39.8 µM [inhibitor, partial curve, poor fit].
In the case of `CN1C=CC=C/C1=C1\SC(=S)N(c2ccccc2)C1=O`, the Potency is reported as inconclusive: 50.1 µM [inhibitor, partial curve, poor fit].
